{"source": "paper PMC5120329", "binders": {"B1": {"name": "N-terminal FLAG-tagged Ryh1 (protein, UniProt P17608 1-201)", "chain": "MSENYSFSLRKFKLVFLGEQSVGKTSLITRFMYDQFDNTYQATIGIDFLSKTMYLEDRTVRLQLWDTAGQERFRSLIPSYIRDSSVAIIVYDITNHNSFVNTEKWIEDVRAERGDDVIIVLVGNKTDLADKRQVTQEEGEKKAKELKIMHMETSAKAGHNVKLLFRKIAQMLPGMENVETQSTQMIDVSIQPNENESSCNC"}}, "molecular_target": "T1, GST-fused version of a 706–814 amino-acid region of human Bicaudal D2 (BICD2) (human) (UniProt Q8TD16)", "T1 sequence": "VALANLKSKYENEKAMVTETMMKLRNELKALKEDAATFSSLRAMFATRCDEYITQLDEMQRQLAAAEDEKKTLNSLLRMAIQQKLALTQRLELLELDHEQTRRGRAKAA", "experiment": "pull-down; GST-BICD2 immobilised on glutathione beads, incubated 45 min with cleared lysate of fission yeast expressing FLAG-Ryh1 (control and pmk1Δ, grown in YES and starved for glucose); PBS with 10 mM MgCl2 and 0.5% Tween 20; bound Ryh1 detected by anti-FLAG blot; only the target purified", "note": "No constants are given. Whether binding was seen depends on the method and setting. In cells and extracts the contact can be indirect. Some results given as binding are weak or reduced against the parent protein; the word gives no strength. Sequences can lack the tags named with a protein.", "data": [{"binder": "B1", "values": [{"measurement": "binding", "result": "binds"}]}]}
